In PubChem BioAssay AID1671190 (National Center for Advancing Translational Sciences (NCATS), 2021):
Several values for one entry are separate records, joined by “and”; a condition that tells them apart may be missing. Equal values may be shown once. The campaign covered roughly 580,000 compounds. About 6,100 (1.1%) were called active. The shares of active, inactive and inconclusive entries below differ from those in the screen. Calls follow the shape of the dose curve; as a rule, active = well fitted inhibition curve with a large enough effect; inconclusive = small, poorly fitted or top-dose-only effect, or another doubt; inactive = no such curve, though single readings can be large or run the other way. Potencies beside an inconclusive call are fits to weak or partial responses and may not hold up.
% is scaled to controls: 0 for no effect and ±100 for the full control effect; potency is read from the fitted curve at half-maximal effect.

Chains of the proteins cited; added tags and fusions are not shown. Lines headed by an entry give the natural chain unless they say otherwise; changes in a name come on top.
UniProt P18054: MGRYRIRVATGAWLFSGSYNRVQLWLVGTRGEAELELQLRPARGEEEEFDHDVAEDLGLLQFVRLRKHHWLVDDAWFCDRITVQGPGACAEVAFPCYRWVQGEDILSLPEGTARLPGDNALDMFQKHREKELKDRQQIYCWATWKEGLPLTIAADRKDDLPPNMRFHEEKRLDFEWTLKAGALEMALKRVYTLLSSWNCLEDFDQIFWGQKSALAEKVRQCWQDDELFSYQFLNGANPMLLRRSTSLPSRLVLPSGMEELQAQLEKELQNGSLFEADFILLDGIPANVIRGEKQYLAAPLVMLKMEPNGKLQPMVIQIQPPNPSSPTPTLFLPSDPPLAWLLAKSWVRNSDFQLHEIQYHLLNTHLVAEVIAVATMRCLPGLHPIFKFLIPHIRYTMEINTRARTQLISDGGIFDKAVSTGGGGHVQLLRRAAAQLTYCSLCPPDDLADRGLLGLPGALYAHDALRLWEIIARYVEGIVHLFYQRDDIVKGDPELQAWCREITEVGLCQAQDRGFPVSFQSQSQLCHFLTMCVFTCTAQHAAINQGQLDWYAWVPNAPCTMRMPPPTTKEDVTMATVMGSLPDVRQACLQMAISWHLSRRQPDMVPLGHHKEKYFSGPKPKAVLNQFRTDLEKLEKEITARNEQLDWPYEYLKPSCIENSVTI

Each compound was assayed against Polyunsaturated fatty acid lipoxygenase ALOX12 (Homo sapiens) (UniProt P18054) (assay: Primary qHTS assay for inhibitors of human arachidonate 12S-lipoxygenase (ALOX12): Round 2). Conditions: purified 12hLO, xylenol orange hydroperoxide absorbance; activity change, negative = inhibition: at 108 µM (top of the series) unless noted.
In short: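 Purified human 12hLO (150 nM final) in 25 mM Hepes, 0.01% Triton X-100, pH 7.0 was preincubated 15 min at room temperature with compound. Then 40 uM arachidonic acid was added, 30 min. Hydroperoxide was read by Fe-XO absorbance ratio 573/405 nm.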
For `CCN(CC)CCCNC(=O)CSc1nc(-c2ccc(OC)cc2)cc(C(F)(F)F)n1`, the Potency was inconclusive: 56.2 µM [inhibitor, partial curve, poor fit].
With `O=C(NCCn1cccn1)c1ccc(C2CCNC2)cc1` (stereo not given) the Potency was inconclusive: 22.4 µM [inhibitor, full curve, poor fit].
`C=CCOc1c(Br)cc(C2C3=C(CCCC3=O)N(C)C3=C2C(=O)CCC3)cc1OCC` was tested, and the “activity change, negative = inhibition” value was inactive: -26.6%.
In the case of `COC(=O)c1cccc(NS(=O)(=O)c2ccc(OC)cc2)c1C`, the “activity change, negative = inhibition” value is reported as inactive: 0.665%.
`Cc1ccc(Cl)cc1NC(=O)COC(=O)CC1CC2CCC1C2` (stereo not given) was tested, and the “activity change, negative = inhibition” value was inactive: 0%.
`CCCN(C(=O)CSc1ncnc2sccc12)c1c(N)n(Cc2ccccc2)c(=O)[nH]c1=O` was tested, and the Potency was inconclusive: 178 µM [inhibitor, partial curve, poor fit].
With `COc1ccc(-c2cc(Nc3ccccc3)nc(C)n2)cc1` the Potency was inconclusive: 44.7 µM [inhibitor, partial curve, poor fit].
With `CCOC(=O)c1ccc(NC(=S)NCCc2ccc(OC)c(OC)c2)cc1` the Potency was inconclusive: 35.5 µM [inhibitor, single point].
With `COc1ccc(-c2nc3cc(C(C)C)ccc3o2)cc1NC(=O)COc1ccc([N+](=O)[O-])cc1` the “activity change, negative = inhibition” value was inactive: -0.0808%.
In the case of `Cn1ccnc1COc1ccc(CSc2nnnn2C(C)(C)C)cc1`, the Potency is reported as inconclusive: 25.1 µM [inhibitor, single point].
`CN(C)Cc1cccc([N+](=O)[O-])c1O` was tested, and the Potency was inconclusive: 2 µM [inhibitor, full curve, poor fit].
`O=C(c1ccncc1)N1N=C(c2ccc(Br)cc2)CC1c1ccccc1O` (stereo not given) was tested, and the Potency was inconclusive: 56.2 µM [inhibitor, partial curve, poor fit].
In the case of `O=C(CCC(=O)c1cccs1)Nc1ccc(N2CCOCC2)cn1`, the Potency is reported as inconclusive: 35.5 µM [inhibitor, partial curve, poor fit].
With `O=C(O)Cc1sc(N/N=C\c2ccccc2)nc1-c1ccccc1` the Potency was active: 44.7 µM.
`CCc1nc(N(CC)CC)c2oc3ccccc3c2n1` was tested, and the Potency was inconclusive: 28.2 µM [inhibitor, partial curve, poor fit].
In the case of `Cc1cccc(NC(=O)Cc2coc3ccc4ccccc4c23)n1`, the Potency is reported as inconclusive: 35.5 µM [inhibitor, partial curve, poor fit].
For `COc1cc(C(c2c(C)[nH][nH]c2=O)c2c(C)[nH][nH]c2=O)cc([N+](=O)[O-])c1O`, the “activity change, negative = inhibition” value was inactive: 10.5%.
For `Cc1ccccc1NC(=S)NC(=O)c1cc(-c2ccccc2)nc2ccccc12`, the Potency was inconclusive: 14.1 µM [inhibitor, partial curve, poor fit].
For `CC(C)c1ccc(CNC(=O)C2CCN(c3cc(C(F)(F)F)ncn3)CC2)cc1`, the Potency was inconclusive: 50.1 µM [inhibitor, partial curve].
`COC(=O)[C@@]1(Cc2ccc(F)cc2)[C@H]2c3cc(C(=O)N(C)C)n(CCc4ccccn4)c3C[C@H]2CN1C(=O)c1ccccc1` was tested, and the Potency was inconclusive: 70.8 µM [inhibitor, partial curve, poor fit].
For `Cc1ccccc1CN1CCCC12Cc1ccccc1CNC2=O` (stereo not given), the Potency was inconclusive: 11.2 µM [inhibitor, full curve, poor fit].
`O/N=C1\CCCc2c1[nH]c1ccc(OCc3ccccc3)cc21` was tested, and the Potency was inconclusive: 44.7 µM [inhibitor, single point].
In the case of `COC(=O)N/N=C/c1cccc(OC(=O)c2ccc3c(c2)OCO3)c1`, the Potency is reported as inconclusive: 100 µM [inhibitor, partial curve, poor fit].
In the case of `Cc1ccc(-c2nn(-c3ccccc3)cc2C=O)o1`, the Potency is reported as inconclusive: 44.7 µM [inhibitor, partial curve, poor fit].
For `Cc1cc(/C=C\c2ccccc2)nc2ccccc12`, the “activity change, negative = inhibition” value was inactive: 0%.
With `N#CCN(CC#N)C(=O)Cc1cccs1` the Potency was active: 31.6 µM.
In the case of `Cn1c(-c2cccc(C(F)(F)F)c2)cc2cnc(Nc3ccc(Oc4ccccc4)cc3)cc21`, the Potency is reported as inconclusive: 44.7 µM [inhibitor, partial curve, poor fit].
For `CC1(c2ccc(Cl)cc2)NC(=O)N(CC(=O)N2CCN(S(=O)(=O)c3ccccc3)CC2)C1=O` (stereo not given), the Potency was inconclusive: 11.2 µM [inhibitor, full curve, poor fit].
With `CC(C)c1ccccc1NS(=O)(=O)c1ccc(CCC(=O)O)cc1` the “activity change, negative = inhibition” value was inactive: 2.78%.
With `CCc1nc2n(n1)C1(CCCCC1)[C@@H]1CCCC[C@@H]1N2C(=O)COC` the Potency was inconclusive: 7.94 µM [inhibitor, full curve, poor fit].
With `O=C(Cc1ccccc1)Nc1ccc(Br)c(Cl)c1` the “activity change, negative = inhibition” value was inactive: -18.3%.
In the case of `O=C(/C=C/c1ccc(Cl)c(Cl)c1)NCc1ccco1`, the Potency is reported as inconclusive: 50.1 µM [inhibitor, partial curve, poor fit].
In the case of `CCc1ccc(C2=C(C)C(N3CCC(C(=O)Nc4cccc(OC)c4)CC3)=NS2(=O)=O)cc1`, the Potency is reported as inconclusive: 17.8 µM [inhibitor, full curve, poor fit].
For `CCN(CC)c1ccc(/C=N/NS(=O)(=O)c2ccccc2)cc1`, the Potency was inconclusive: 35.5 µM [inhibitor, partial curve, poor fit].
With `O=c1c(-c2cccs2)nc2cnc(N3CCNCC3)nc2n1CCc1ccccc1` the Potency was inconclusive: 44.7 µM [inhibitor, partial curve, poor fit].
In the case of `COCCN1C(=O)CS(=O)(=O)C12CCN(C(=O)c1ccc(Cl)cc1)CC2`, the “activity change, negative = inhibition” value is reported as inactive: 8.18%.
In the case of `CSCC(=O)N[C@H]1CCN2C(=O)c3cc(-c4ccc5c(c4)OCO5)ccc3NC(=O)[C@H]12`, the Potency is reported as inconclusive: 31.6 µM [inhibitor, full curve].
In the case of `CCc1sc(C(=O)NCc2ccco2)cc1Br`, the Potency is reported as inconclusive: 44.7 µM [inhibitor, partial curve, poor fit].
For `CCC(=O)N1CCN(c2nc3c(s2)CC(C(=O)Nc2ccc(F)cc2C)CC3)CC1` (stereo not given), the Potency was inconclusive: 15.8 µM [inhibitor, full curve].
For `COc1ccc2[nH]c3c(c2c1)CCNC31CCN(C(=O)c2ccc(OC)nc2OC)CC1`, the Potency was inconclusive: 17.8 µM [inhibitor, partial curve].
For `Oc1ccc(/C=C/c2nc(-c3ccccc3O)n(-c3ccccc3)n2)c(O)c1`, the Potency was inconclusive: 56.2 µM [inhibitor, partial curve, poor fit].
For `COc1cccc(C2CC(=O)Nc3nc(N)sc32)c1OC(C)C` (stereo not given), the Potency was inconclusive: 2.82 µM [inhibitor, full curve, poor fit].
In the case of `COc1ccc(C)c2sc(N(Cc3cccnc3)C(=O)C3=COCCO3)nc12`, the Potency is reported as inconclusive: 39.8 µM [inhibitor, partial curve, poor fit].
`Cc1ccc(C(NC(=O)C2CCN(CCCOc3ccccc3)CC2)c2ccccn2)cc1` (stereo not given) was tested, and the Potency was inconclusive: 100 µM [inhibitor, single point].
`COc1cccc(C(=O)Nc2ccccc2N2CCCC2)c1` was tested, and the Potency was inconclusive: 15.8 µM [inhibitor, partial curve].
With `O=C(COc1ccccc1Cl)NC1CCCN(c2ncccn2)C1` (stereo not given) the “activity change, negative = inhibition” value was inactive: -28.8%.
`CN(C)C(=O)c1ccc(NC(=O)Cn2nc(-c3ccccc3)c3ccccc3c2=O)cc1` was tested, and the “activity change, negative = inhibition” value was inactive: -3.66%.
`CCCc1nc2oc3c(NCC4CCCO4)ncnc3c2c2c1COC(C)(C)C2` (stereo not given) was tested, and the Potency was inconclusive: 28.2 µM [inhibitor, full curve, poor fit].
For `COc1cc(C(=O)Nc2cccc3ncccc23)cc(OC)c1OC`, the “activity change, negative = inhibition” value was inactive: 0%.
In the case of `Cc1ccccc1C(=O)NC1(C(F)(F)F)N=C(c2ccccc2)N(Cc2ccco2)C1=O` (stereo not given), the activity change, negative = inhibition is reported as inconclusive: -39.6% [inhibitor].
With `Clc1cccc(-n2ncc3c(NCCc4ccccc4)ncnc32)c1` the Potency was active: 44.7 µM and active: 8.91 µM.
In the case of `CCCN1CC2(CCN(Cc3nc(C(=O)O)co3)CC2)CC1C(=O)O` (stereo not given), the “activity change, negative = inhibition” value is reported as inactive: -2.21%.
`CC1=C(C(=O)OC(C)C)C(c2ccccc2)NC(=S)N1C` (stereo not given) was tested, and the Potency was inconclusive: 50.1 µM [inhibitor, partial curve, poor fit].
With `Cc1ccc(OC(=O)N2CCC(Oc3ccc4c(cnn4CCC(=O)O)c3)CC2)cc1` the “activity change, negative = inhibition” value was inactive: 9.19% [at 176 µM].
In the case of `Cc1ccccc1-n1nc(-c2ccc(N)cc2)cc1N`, the Potency is reported as inconclusive: 44.7 µM [inhibitor, single point].
`COc1ccc(-n2c(=O)c3c(n2Cc2ccccc2)CN(Cc2ccc(F)cc2)CC3)cc1` was tested, and the Potency was inconclusive: 28.2 µM [inhibitor, full curve].
For `COCCn1c(C)cc(C2=NNC(=Nc3ccccc3)SC2)c1C`, the “activity change, negative = inhibition” value was inactive: -59.5%.
In the case of `Cc1cccc(NC(=O)c2c(NC(=O)c3cccs3)sc3c2CCC(C)C3)c1` (stereo not given), the Potency is reported as inconclusive: 56.2 µM [inhibitor, partial curve, poor fit].
With `O=C(Nc1cccc(NC(=S)NC(=O)c2cccs2)c1)c1ccccc1` the “activity change, negative = inhibition” value was inactive: -14.2%.
With `O=C(Cc1cccc(C(F)(F)F)c1)N1CCCc2ncc(C(=O)N3CCCC[C@@H]3Cc3ccccc3)cc21` the “activity change, negative = inhibition” value was inactive: 17.1%.
In the case of `Cc1ccc([C@H]2C[C@H](O)[C@@H](n3cc(-c4ccc(F)cc4)nn3)CN2C(=O)c2cccs2)cc1`, the Potency is reported as inconclusive: 39.8 µM [inhibitor, partial curve, poor fit].
`Cc1ccc(CNC(=O)c2ccc3c(=O)n(CC4CCCO4)c(=S)[nH]c3c2)cc1` (stereo not given) was tested, and the “activity change, negative = inhibition” value was inactive: 14.4%.
In the case of `C[C@@H]1CC[C@]2(O[C@@H](CCO)C[C@@H](O)[C@@H]2O)O1`, the Potency is reported as inconclusive: 39.8 µM [inhibitor, full curve, poor fit].
In the case of `COc1cc(=O)n2c(c1C(=O)Nc1ccc(Cl)cc1F)CCCC2`, the Potency is reported as inconclusive: 15.8 µM [inhibitor, full curve, poor fit].
For `COc1cccc(CN2CCc3nc(Nc4ccc5c(c4)OCCO5)ncc3C2)c1OC`, the Potency was inconclusive: 0.891 µM [inhibitor, full curve].
